# PubChem BioAssay AID1259424, University of Nebraska Medical Center, 2018
# Test: 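Find knockdowns that reproduce the expression shifts seen after KSR1 loss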 (primary screen)
# System: human HCT116 colon cancer cells
# Reagent: siRNA pool against human genes, 50 nM
# Detection: 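Log2 levels of six mRNAs (branched-DNA multiplex), adjusted by two reference genes and the non-targeting median, then scored against the average KSR1 knockdown pattern as Pearson r and euclidean distance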
# Scale: mean correlation with KSR1 profile and KSR1 correlation: higher = expression change more like KSR1 knockdown; mean distance from KSR1 profile: higher = expression change less like KSR1 knockdown
# Shown is a random part of about 14,000 deposited reagents. 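Higher correlation or smaller distance means closer resemblance to KSR1 loss; control wells, including KSR1 knockdowns, recur on many plates.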 Some reagents were tested in more than one well and are listed for each. No sequences are given here. Not given: the time to read-out.
gene knocked down,mean correlation with KSR1 profile,mean distance from KSR1 profile,"KSR1 correlation, replicate 1","KSR1 correlation, replicate 2","KSR1 correlation, replicate 3"
CTDP1,-0.373,1.48,-0.308,-0.259,-0.538
RBM38,0.427,1.97,0.606,0.0795,0.44
ALDH3A1,0.265,2.22,0.158,0.443,0.593
MOAP1,-0.297,2.65,-0.189,-0.285,-0.285
MOAP1,0.2,2.7,0.335,0.201,-0.351
GLIS2,-0.374,2.49,-0.177,-0.605,-0.22
ATOH1,-0.2,1.94,-0.0209,-0.097,-0.285
TMEM185A,0.744,1.6,0.69,0.63,0.681
TMEM115,-0.0309,2.74,0.0244,-0.0238,-0.0494
MMP26,-0.297,2.56,-0.242,-0.409,-0.226
ARMC7,-0.59,2.33,-0.709,-0.592,-0.449
TRAP1,0.231,2.71,0.252,0.0942,0.239
SSX4,-0.235,2.49,-0.276,-0.379,-0.175
INO80,-0.586,2.75,-0.697,-0.636,-0.651
TAS2R19,0.412,1.92,0.384,0.578,0.367
PCNX2,0.0905,2.21,0.0459,-0.0172,0.017
ATP5F1D,0.165,4.89,0.191,0.256,0.0741
SLAIN2,-0.113,2.14,-0.174,0.0424,-0.458
CREBZF,0.487,8.52,0.144,0.064,0.428

The list goes on; the last 6 above are carried over.
gene knocked down,mean correlation with KSR1 profile,mean distance from KSR1 profile,"KSR1 correlation, replicate 1","KSR1 correlation, replicate 2","KSR1 correlation, replicate 3"
INO80,-0.586,2.75,-0.697,-0.636,-0.651
TAS2R19,0.412,1.92,0.384,0.578,0.367
PCNX2,0.0905,2.21,0.0459,-0.0172,0.017
ATP5F1D,0.165,4.89,0.191,0.256,0.0741
SLAIN2,-0.113,2.14,-0.174,0.0424,-0.458
CREBZF,0.487,8.52,0.144,0.064,0.428
TOR1AIP2,0.0552,2.27,-0.0829,-0.475,0.154
PLPPR2,-0.42,3.11,-0.461,-0.627,-0.53
GSAP,0.413,1.65,0.136,0.489,0.49
GRIP1,0.31,1.32,0.459,0.0441,0.434
GCM1,0.268,2.58,0.495,0.432,-0.0826
CD72,-0.041,1.46,0.122,-0.321,0.0597
MRAS,0.653,1.83,0.559,0.629,0.734
CLPTM1L,0.816,1.64,0.679,0.89,0.695
LMO1,0.133,2.14,0.197,-0.101,-0.0803
ZNF547,0.106,1.53,0.259,0.184,0.0633
NDUFB9,0.438,1.15,0.688,0.455,0.212
NDUFS1,0.205,1.68,0.277,-0.048,0.248
CORIN,0.138,3.45,0.21,0.219,0.0251
TPM2,0.877,0.601,0.922,0.899,0.77
SHISA5,0.423,4.26,0.168,0.529,0.61
GZF1,-0.00738,2.13,0.08,-0.378,-0.115
LARP7,-0.71,4.88,-0.369,-0.88,-0.516
RIPPLY3,0.0314,1.16,-0.214,0.476,-0.432
SARAF,0.085,2.09,-0.0286,0.0763,-0.0921
NOCT,-0.206,2.55,-0.141,-0.31,-0.0187
FOXI1,0.833,1.25,0.406,0.554,0.7
ZNF410,-0.141,1.69,-0.31,0.0718,-0.155
EREG,-0.346,2.6,-0.236,-0.388,-0.436
ACADSB,0.267,1.33,-0.31,0.511,0.456
TPR,-0.679,2.09,-0.634,-0.528,-0.747
INPP5K,-0.0298,1.95,0.399,0.0433,0.141
ZSCAN18,0.13,2.25,0.161,-0.0904,0.099
BDKRB2,0.722,1.28,0.73,0.677,0.727
BDKRB2,0.48,1.46,0.573,0.517,0.134
P3H2,-0.459,2.8,-0.293,-0.566,-0.51
AUNIP,-0.5,1.92,-0.688,-0.699,-0.552
